Experimental data taken from patent US10865191B2, “Heterocyclic compounds useful as modulators of TNF alpha” (BRISTOL-MYERS SQUIBB COMPANY, priority 2015, dated 2020).
Some results were stated once for a whole list of compounds, not compound by compound. Each block holds one molecule with its values, some of them ahead of it.

Amino acid sequences for entries named in this document (tags omitted). Residues count along the entry.
UniProt P01375, 77-233 limits assumed: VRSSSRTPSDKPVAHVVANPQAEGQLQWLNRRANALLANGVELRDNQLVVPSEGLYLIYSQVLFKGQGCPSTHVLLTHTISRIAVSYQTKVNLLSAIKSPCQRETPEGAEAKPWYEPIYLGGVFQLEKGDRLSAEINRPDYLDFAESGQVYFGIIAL

Target: TNFα (Homo sapiens, UniProt P01375)
Test: TNF induced HEK-Blue assay (NF-kB-driven secreted alkaline phosphatase reporter)
Type: cell-based
Details: TNFα 0.5 ng/mL, HEK-Blue-CD40L cells, 18 h; read-out: IC50 values measured in the TNF induced HEK-Blue assay
Procedure, shortened: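 HEK-Blue-CD40L cells (NF-kB-driven SEAP reporter), 20,000/well, added after 30 min pre-incubation of compound (0.004–25 μM final) with TNFα 0.5 ng/mL final at 37 °C; 18 h incubation. SEAP read with QUANTI-Blue at 620 nm; IC50 from 4-parameter logistic fit, normalized to unstimulated and stimulated DMSO controls.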

SMILES: Cc1ccc(C)c(NCc2nc3ccc(-c4ccc(C#N)nc4)cc3c(Nc3cc(C)ccc3C)c2Cl)c1 [Example 3, 5-(3-chloro-4-((2,5-dimethylphenyl)amino)-2-(((2,5-dimethylphenyl)amino)methyl)quinolin-6-yl)picolinonitrile]
IC50: ≤ 25 µM

SMILES: Cc1nc2cc(F)c(-c3cnc(C(C)(C)O)nc3)nc2c(N[C@H](C)c2cc(C(O)CO)ccc2F)c1Cl (stereo partly drawn) [Example 570, 1-(3-((R)-1-((3-chloro-7-fluoro-6-(2-(2-hydroxypropan-2-yl)pyrimidin-5-yl)-2-methyl-1,5-naphthyridin-4-yl)amino)ethyl)-4-fluorophenyl)ethane-1,2-diol]
IC50: ≤ 25 µM

SMILES: C[C@@H](Nc1c(Cl)cnc2cc(F)c(-c3cnc(C(C)(C)O)nc3)nc12)c1cc(C(N)=O)ccc1F [Example 583, (R)-3-(1-((3-chloro-7-fluoro-6-(2-(2-hydroxypropan-2-yl)pyrimidin-5-yl)-1,5-naphthyridin-4-yl)amino)ethyl)-4-fluorobenzamide]
IC50: ≤ 25 µM

SMILES: CC(C)(O)c1ncc(-c2cc3c(N[C@H]4C[C@@H]4c4ccccc4)c(Cl)cnc3cc2F)cn1 (mixture of isomers) [Example 271, 2-(5-(3-chloro-7-fluoro-4-(((1S,2R)-2-phenylcyclopropyl)amino)quinolin-6-yl)pyrimidin-2-yl)propan-2-ol]
IC50: ≤ 25 µM

SMILES: C=Cc1ccc(F)c([C@@H](C)Nc2c(Cl)cnc3cc(F)c(-c4cnc(C(C)(C)O)nc4)nc23)c1 [Example 188, (R)-2-(5-(7-chloro-3-fluoro-8-((1-(2-fluoro-5-vinylphenyl)ethyl)amino)-1,5-naphthyridin-2-yl)pyrimidin-2-yl)propan-2-ol]
IC50: ≤ 25 µM

SMILES: Cc1nc2ccc(-c3cnc(C(C)(C)O)nc3)cc2c(N[C@@H](c2cc(C(O)CO)ccc2F)C(F)F)c1Cl (mixture of isomers) [Example 402, 1-(3-((S)-1-((3-chloro-6-(2-(2-hydroxypropan-2-yl)pyrimidin-5-yl)-2-methylquinolin-4-yl)amino)-2,2-difluoroethyl)-4-fluorophenyl)ethane-1,2-diol]
IC50: ≤ 25 µM

SMILES: Cc1nc2cc(F)c(-c3cnc(C(C)(C)O)nc3)nc2c(N[C@H](C)c2cc(C(=O)O)ccc2F)c1Cl [Example 582, (R)-3-(1-((3-chloro-7-fluoro-6-(2-(2-hydroxypropan-2-yl)pyrimidin-5-yl)-2-methyl-1,5-naphthyridin-4-yl)amino)ethyl)-4-fluorobenzoic acid]
IC50: ≤ 25 µM

SMILES: CNC(=O)c1ccc(-c2ccc3nc(C)c(Cl)c(Nc4cc(C)ccc4C)c3c2)cn1 [Example 8, 5-(3-chloro-4-((2,5-dimethylphenyl)amino)-2-methylquinolin-6-yl)-N-methylpicolinamide]
IC50: ≤ 25 µM

SMILES: CC(C)(O)c1ncc(-c2nc3c(N[C@@H](c4cc(C(O)CO)ccc4F)C(F)F)c(Cl)cnc3cc2F)cn1 (stereo partly drawn) [Example 492, 1-(3-((S)-1-((3-chloro-7-fluoro-6-(2-(2-hydroxypropan-2-yl)pyrimidin-5-yl)-1,5-naphthyridin-4-yl)amino)-2,2-difluoroethyl)-4-fluorophenyl)ethane-1,2-diol]
IC50: ≤ 25 µM

SMILES: C[C@@H](Nc1c(Cl)cnc2cc(F)c(-c3cnc(C(C)(C)O)nc3)cc12)c1cc(C#N)ccc1F [Example 379, (R)-3-(1-((3-chloro-7-fluoro-6-(2-(2-hydroxypropan-2-yl)pyrimidin-5-yl)quinolin-4-yl)amino)ethyl)-4-fluorobenzonitrile]
IC50: ≤ 25 µM

SMILES: Cc1nc2ncccc2c(N[C@H](C)c2cc(-c3cncnc3)ccc2F)c1Cl [Example 556, (R)-3-chloro-N-(1-(2-fluoro-5-(pyrimidin-5-yl)phenyl)ethyl)-2-methyl-1,8-naphthyridin-4-amine]
IC50: ≤ 25 µM

SMILES: Cc1nc2ccc(C3C=NC(C(C)(C)O)=NC3)cc2c(N[C@H](C)c2cc(CO)ccc2F)c1Cl (stereo partly drawn) [Example 432, (R)-2-(5-(3-chloro-4-((1-(2-fluoro-5-(hydroxymethyl)phenyl)ethyl)amino)-2-methylquinolin-6-yl)-4,5-dihydropyrimidin-2-yl)propan-2-ol]
IC50: ≤ 25 µM

SMILES: CCCCCC(C)Nc1c(Cl)cnc2ccc(-c3cnc(C(C)(C)O)nc3)cc12 (racemic) [Example 139, 2-(5-(3-chloro-4-(heptan-2-ylamino)quinolin-6-yl)pyrimidin-2-yl) propan-2-ol]
IC50: ≤ 25 µM

SMILES: CC(Nc1c(Cl)cnc2cc(F)c(-c3cnc(C(C)(C)O)cn3)cc12)c1ccccc1F (racemic) [Example 294, 2-(5-(3-chloro-7-fluoro-4-((1-(2-fluorophenyl)ethyl)amino)quinolin-6-yl)pyrazin-2-yl)propan-2-ol]
IC50: ≤ 25 µM

Now from value to molecule:

IC50: ≤ 25 µM
SMILES: C[C@@H](Nc1c(Cl)cnc2ccc(-c3cnc(C(C)(C)O)nc3)cc12)c1cc(C(O)CO)ccc1F (single isomer, unassigned) [Example 400]

IC50: ≤ 25 µM
SMILES: CN(C)CC(Nc1c(Cl)cnc2ccc(-c3cnc(C(C)(C)O)nc3)cc12)c1ccccc1F (racemic) [Example 12, 2-(5-(3-chloro-4-((2-(dimethylamino)-1-(2-fluorophenyl)ethyl)amino)quinolin-6-yl)pyrimidin-2-yl) propan-2-ol]

IC50: ≤ 25 µM
SMILES: CC(Nc1c(Cl)cnc2ccc(-c3cnc(N4CCNC(=O)C4)nc3)cc12)c1nc(C(=O)Nc2ccccc2)ccc1F (racemic) [Example 38, 6-(1-((3-chloro-6-(2-(3-oxopiperazin-1-yl)pyrimidin-5-yl)quinolin-4-yl)amino)ethyl)-5-fluoro-N-phenylpicolinamide]

IC50: ≤ 25 µM
SMILES: C[C@@H](Nc1c(Cl)cnc2ccc(-c3ccc(C4(N)CC4)cc3)cc12)c1ccccc1F [Example 102, (R)-6-(4-(1-aminocyclopropyl)phenyl)-3-chloro-N-(1-(2-fluorophenyl)ethyl)quinolin-4-amine]

IC50: ≤ 25 µM
SMILES: C[C@@H](Nc1c(Cl)cnc2ccc(-c3cnc(C(C)(C)O)nc3)cc12)c1cc(-c2cncnc2)ccc1F [Example 340, (R)-2-(5-(3-chloro-4-((1-(2-fluoro-5-(pyrimidin-5-yl)phenyl)ethyl)amino)quinolin-6-yl)pyrimidin-2-yl) propan-2-ol]

IC50: ≤ 25 µM
SMILES: Cc1nc2ccc(-c3cnc(C(C)(C)O)nc3)cc2c(N[C@H](C)c2cc(C3=CCCC3)ccc2F)c1Cl [Example 333, (R)-2-(5-(3-chloro-4-((1-(5-(cyclopent-1-en-1-yl)-2-fluorophenyl)ethyl)amino)-2-methylquinolin-6-yl)pyrimidin-2-yl)propan-2-ol]

IC50: ≤ 25 µM
SMILES: Cc1c(-c2ccc(F)c([C@@H](C)Nc3c(Cl)cnc4ccccc34)c2)cnn1C [Example 474, (R)-3-chloro-N-(1-(5-(1,5-dimethyl-1H-pyrazol-4-yl)-2-fluorophenyl)ethyl)quinolin-4-amine]

IC50: ≤ 25 µM
SMILES: C[C@@H](Nc1c(Cl)cnc2cccnc12)c1cc(-c2cncnc2)ccc1F [Example 555, (R)-3-chloro-N-(1-(2-fluoro-5-(pyrimidin-5-yl)phenyl)ethyl)-1,5-naphthyridin-4-amine]

IC50: ≤ 25 µM
SMILES: C[C@@H](Nc1c(Cl)cnc2ccccc12)c1cc(-c2cnc(C(C)(C)O)nc2)ccc1F [Example 469, (R)-2-(5-(3-(1-((3-chloroquinolin-4-yl)amino)ethyl)-4-fluorophenyl)pyrimidin-2-yl)propan-2-ol]

IC50: ≤ 25 µM
SMILES: C[C@@H](Nc1c(Cl)cnc2ccccc12)c1cc(-c2cncc(N)c2)ccc1F [Example 511, (R)—N-(1-(5-(5-aminopyridin-3-yl)-2-fluorophenyl)ethyl)-3-chloroquinolin-4-amine]

IC50: ≤ 25 µM
SMILES: O=C(O)CC1CN(c2ncc(-c3ccc4ncc(Cl)c(N[C@@H](c5ccccc5F)C(F)F)c4c3)cn2)CCN1 (mixture of isomers) [Example 77, 2-(4-(5-(3-chloro-4-(((S)-2,2-difluoro-1-(2-fluorophenyl)ethyl)amino)quinolin-6-yl)pyrimidin-2-yl)piperazin-2-yl) acetic acid]

IC50: ≤ 25 µM
SMILES: C[C@@H](Nc1c(Cl)cnc2ccc(-c3cnc(C(C)(C)O)nc3)cc12)c1cc(-c2cnn(CC(C)(C)O)c2)ccc1F [Example 349, (R)-1-(4-(3-(1-((3-chloro-6-(2-(2-hydroxypropan-2-yl)pyrimidin-5-yl)quinolin-4-yl)amino)ethyl)-4-fluorophenyl)-1H-pyrazol-1-yl)-2-methylpropan-2-ol]

IC50: ≤ 25 µM
SMILES: CC(Nc1c(Cl)cnc2ccc(-c3ccc(C(C)(C)O)cc3)cc12)c1ncco1 (racemic) [Example 179, 2-(4-(3-chloro-4-((1-(oxazol-2-yl)ethyl)amino)quinolin-6-yl)phenyl)propan-2-ol]

IC50: ≤ 25 µM
SMILES: O=C(O)CN1CCN(c2ncc(-c3ccc4ncc(Cl)c(N[C@@H](c5ccccc5F)C(F)F)c4c3)cn2)CC1 [Example 92, (S)-2-(4-(5-(3-chloro-4-((2,2-difluoro-1-(2-fluorophenyl)ethyl)amino)quinolin-6-yl)pyrimidin-2-yl)piperazin-1-yl)acetic acid]

IC50: ≤ 25 µM
SMILES: C[C@@H](Nc1c(Cl)cnc2ccc(-c3cnc(C(C)(C)O)nc3)cc12)c1cc(-c2ccnc(N)c2)ccc1F [Example 350, (R)-2-(5-(4-((1-(5-(2-aminopyridin-4-yl)-2-fluorophenyl)ethyl)amino)-3-chloroquinolin-6-yl)pyrimidin-2-yl)propan-2-ol]

IC50: ≤ 25 µM
SMILES: C[C@@H](Nc1c(Cl)cnc2ccccc12)c1cc(-c2ccc(N)nc2)ccc1F [Example 478, (R)—N-(1-(5-(6-aminopyridin-3-yl)-2-fluorophenyl)ethyl)-3-chloroquinolin-4-amine]

IC50: ≤ 25 µM
SMILES: COc1ncc(-c2ccc(F)c([C@@H](C)Nc3c(Cl)cnc4ccccc34)c2)cn1 [Example 543, (R)-3-chloro-N-(1-(2-fluoro-5-(2-methoxypyrimidin-5-yl)phenyl)ethyl)quinolin-4-amine]

IC50: ≤ 25 µM
SMILES: CC(Nc1c(Cl)cnc2cc(F)c(-c3cnc(N4CCN(C(=O)[C@H](N)CC(=O)O)CC4)nc3)cc12)c1ccccc1F (single isomer, unassigned) [Example 607]
